Reference: the supplement of paper PMC10849652
Some of the results follow.

Amino acid sequences for entries named in this document (tags omitted). A change or cut given only in a name is not applied to a line headed by its entry.
UniProt Q86WR0: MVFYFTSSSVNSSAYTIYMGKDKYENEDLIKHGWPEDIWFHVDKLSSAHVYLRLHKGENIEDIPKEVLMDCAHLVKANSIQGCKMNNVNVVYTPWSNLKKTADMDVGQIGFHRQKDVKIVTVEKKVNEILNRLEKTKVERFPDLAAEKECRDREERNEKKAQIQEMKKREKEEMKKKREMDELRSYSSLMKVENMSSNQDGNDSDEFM
UniProt Q8N4J0: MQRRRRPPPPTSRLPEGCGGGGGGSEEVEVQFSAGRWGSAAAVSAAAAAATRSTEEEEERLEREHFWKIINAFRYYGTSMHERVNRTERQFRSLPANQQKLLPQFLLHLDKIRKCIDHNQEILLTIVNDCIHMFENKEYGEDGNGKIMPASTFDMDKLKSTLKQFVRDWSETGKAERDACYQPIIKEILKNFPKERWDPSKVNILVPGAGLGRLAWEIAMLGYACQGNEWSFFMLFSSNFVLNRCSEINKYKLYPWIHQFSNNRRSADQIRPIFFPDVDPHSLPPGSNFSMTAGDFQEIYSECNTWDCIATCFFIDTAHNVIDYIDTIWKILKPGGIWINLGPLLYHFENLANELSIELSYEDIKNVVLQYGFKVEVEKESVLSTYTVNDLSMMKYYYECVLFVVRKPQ
UniProt Q9H6E4: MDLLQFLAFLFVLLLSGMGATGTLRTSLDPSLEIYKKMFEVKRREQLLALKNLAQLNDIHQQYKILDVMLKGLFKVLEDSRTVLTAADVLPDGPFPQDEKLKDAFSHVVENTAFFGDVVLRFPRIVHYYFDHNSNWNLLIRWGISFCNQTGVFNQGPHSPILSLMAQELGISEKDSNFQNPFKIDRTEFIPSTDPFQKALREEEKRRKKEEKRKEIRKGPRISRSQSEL
UniProt Q99832: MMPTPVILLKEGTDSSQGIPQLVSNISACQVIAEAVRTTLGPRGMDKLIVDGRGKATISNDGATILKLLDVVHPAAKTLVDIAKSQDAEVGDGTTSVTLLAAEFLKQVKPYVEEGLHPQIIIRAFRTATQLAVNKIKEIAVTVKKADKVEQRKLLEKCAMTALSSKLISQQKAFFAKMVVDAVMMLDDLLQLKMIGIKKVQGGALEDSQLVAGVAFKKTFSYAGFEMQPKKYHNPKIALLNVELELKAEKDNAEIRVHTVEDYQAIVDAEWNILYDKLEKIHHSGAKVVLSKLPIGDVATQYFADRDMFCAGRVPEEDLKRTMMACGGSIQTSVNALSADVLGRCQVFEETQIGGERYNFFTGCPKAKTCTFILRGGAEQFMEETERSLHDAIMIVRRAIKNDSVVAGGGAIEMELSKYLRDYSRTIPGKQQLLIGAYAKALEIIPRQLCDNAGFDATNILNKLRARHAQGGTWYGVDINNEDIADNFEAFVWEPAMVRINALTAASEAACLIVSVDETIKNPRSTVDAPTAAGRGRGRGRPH
UniProt P20248, whole entry, looked up: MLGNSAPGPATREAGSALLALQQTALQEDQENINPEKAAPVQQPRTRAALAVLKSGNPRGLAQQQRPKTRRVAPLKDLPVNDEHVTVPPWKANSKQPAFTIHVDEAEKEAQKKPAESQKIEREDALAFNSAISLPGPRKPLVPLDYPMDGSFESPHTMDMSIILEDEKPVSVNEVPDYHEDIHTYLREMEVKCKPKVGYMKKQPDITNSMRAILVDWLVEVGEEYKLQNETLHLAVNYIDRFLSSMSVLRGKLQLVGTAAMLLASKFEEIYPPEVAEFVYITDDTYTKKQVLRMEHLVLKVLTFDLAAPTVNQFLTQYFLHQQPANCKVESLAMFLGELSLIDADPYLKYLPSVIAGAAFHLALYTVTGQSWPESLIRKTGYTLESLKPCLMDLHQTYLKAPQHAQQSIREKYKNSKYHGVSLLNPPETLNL
UniProt P50990: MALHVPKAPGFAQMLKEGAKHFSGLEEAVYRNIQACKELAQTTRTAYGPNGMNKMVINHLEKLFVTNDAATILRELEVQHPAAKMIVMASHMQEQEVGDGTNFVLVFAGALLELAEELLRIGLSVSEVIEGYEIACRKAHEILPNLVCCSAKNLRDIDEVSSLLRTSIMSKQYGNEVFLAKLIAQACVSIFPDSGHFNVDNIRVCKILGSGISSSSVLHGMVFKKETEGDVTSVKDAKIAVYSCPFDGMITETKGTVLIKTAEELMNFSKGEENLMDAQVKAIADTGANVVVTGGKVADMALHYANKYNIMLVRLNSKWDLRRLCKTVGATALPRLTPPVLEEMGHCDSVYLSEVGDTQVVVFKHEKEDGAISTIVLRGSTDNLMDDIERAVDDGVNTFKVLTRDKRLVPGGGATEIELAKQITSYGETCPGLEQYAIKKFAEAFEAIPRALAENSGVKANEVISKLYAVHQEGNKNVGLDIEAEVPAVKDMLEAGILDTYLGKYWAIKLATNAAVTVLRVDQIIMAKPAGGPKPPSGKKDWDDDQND
UniProt Q9Y5K6, whole entry, looked up: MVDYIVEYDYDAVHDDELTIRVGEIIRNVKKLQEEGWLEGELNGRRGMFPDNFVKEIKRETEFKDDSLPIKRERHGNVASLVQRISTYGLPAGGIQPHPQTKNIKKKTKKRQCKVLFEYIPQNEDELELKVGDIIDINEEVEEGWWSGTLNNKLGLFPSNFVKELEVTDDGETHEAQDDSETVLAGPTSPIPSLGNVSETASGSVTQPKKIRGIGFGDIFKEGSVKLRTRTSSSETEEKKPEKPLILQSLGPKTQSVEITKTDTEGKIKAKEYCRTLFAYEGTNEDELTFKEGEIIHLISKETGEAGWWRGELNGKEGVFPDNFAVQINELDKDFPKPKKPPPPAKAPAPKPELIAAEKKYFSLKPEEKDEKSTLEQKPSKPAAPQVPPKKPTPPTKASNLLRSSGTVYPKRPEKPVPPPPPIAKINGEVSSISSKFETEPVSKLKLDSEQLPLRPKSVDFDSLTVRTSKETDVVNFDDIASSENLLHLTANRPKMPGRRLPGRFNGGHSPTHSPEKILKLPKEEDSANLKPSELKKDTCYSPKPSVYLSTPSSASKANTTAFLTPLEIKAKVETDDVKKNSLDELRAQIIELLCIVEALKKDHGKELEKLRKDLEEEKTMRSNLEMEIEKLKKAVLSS
UniProt O14618: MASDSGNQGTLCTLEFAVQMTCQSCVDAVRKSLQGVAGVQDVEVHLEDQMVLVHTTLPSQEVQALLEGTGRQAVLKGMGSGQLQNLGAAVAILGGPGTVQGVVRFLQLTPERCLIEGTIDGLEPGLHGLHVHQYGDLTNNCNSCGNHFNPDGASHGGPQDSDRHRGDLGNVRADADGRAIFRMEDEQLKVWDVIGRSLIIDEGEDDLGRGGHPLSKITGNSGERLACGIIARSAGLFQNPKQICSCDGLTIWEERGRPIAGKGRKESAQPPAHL
UniProt Q75N03: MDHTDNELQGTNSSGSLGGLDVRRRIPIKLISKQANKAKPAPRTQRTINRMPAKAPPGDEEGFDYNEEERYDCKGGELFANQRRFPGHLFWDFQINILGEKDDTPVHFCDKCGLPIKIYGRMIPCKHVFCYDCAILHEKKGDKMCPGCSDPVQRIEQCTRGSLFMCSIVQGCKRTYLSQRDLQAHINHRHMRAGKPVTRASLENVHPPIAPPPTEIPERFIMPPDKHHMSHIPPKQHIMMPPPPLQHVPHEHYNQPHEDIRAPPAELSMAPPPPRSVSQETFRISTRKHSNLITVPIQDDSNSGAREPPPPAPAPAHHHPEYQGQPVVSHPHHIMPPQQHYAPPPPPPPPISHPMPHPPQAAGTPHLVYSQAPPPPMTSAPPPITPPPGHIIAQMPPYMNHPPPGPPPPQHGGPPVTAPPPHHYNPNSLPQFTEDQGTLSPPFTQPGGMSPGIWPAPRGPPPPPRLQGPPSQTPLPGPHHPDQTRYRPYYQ
UniProt Q92526, whole entry, looked up: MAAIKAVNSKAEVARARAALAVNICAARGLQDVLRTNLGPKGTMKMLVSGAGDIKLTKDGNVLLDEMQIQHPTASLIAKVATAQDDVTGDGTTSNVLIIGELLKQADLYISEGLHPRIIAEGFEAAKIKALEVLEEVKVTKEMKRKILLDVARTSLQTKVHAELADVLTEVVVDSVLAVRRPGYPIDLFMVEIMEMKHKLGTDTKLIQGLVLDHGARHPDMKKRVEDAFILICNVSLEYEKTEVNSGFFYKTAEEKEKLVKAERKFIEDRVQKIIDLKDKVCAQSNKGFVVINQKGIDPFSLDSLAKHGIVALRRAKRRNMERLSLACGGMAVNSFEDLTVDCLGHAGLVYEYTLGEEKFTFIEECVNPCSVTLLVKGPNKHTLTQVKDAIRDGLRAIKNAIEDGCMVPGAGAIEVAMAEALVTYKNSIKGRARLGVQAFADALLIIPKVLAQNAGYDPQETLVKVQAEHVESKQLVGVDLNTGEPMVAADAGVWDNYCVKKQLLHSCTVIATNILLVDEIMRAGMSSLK
UniProt P24864, whole entry, looked up: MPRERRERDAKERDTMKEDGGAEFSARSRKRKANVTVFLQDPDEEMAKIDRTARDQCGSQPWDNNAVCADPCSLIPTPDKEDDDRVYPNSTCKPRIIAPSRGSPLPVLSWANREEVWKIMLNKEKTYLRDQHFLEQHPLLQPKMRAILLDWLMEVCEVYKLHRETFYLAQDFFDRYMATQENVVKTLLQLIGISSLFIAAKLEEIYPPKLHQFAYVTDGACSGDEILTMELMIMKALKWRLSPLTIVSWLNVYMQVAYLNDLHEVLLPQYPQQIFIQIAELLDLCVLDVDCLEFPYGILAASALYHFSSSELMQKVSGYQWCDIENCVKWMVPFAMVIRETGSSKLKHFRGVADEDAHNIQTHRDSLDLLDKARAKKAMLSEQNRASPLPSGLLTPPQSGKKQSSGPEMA
UniProt P51636: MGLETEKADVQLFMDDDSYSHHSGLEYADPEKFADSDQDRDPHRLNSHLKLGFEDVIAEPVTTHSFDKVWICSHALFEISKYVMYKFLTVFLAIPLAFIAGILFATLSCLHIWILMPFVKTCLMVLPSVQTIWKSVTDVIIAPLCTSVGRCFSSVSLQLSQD

Assays:
Experiment in all cases: log2 fold change, soluble protein after heating vs DMSO (PISA); higher = thermal stabilisation; K562 lysate, 10 uM; active = over 0.2 and 3.5 SD of the protein, either way, in both replicates (recomputed)
[1] = compound: CS(=O)(=O)CCNCc1ccc(-c2ccc3ncnc(Nc4ccc(OCc5cccc(F)c5)c(Cl)c4)c3c2)o1 [lapatinib]
Summary of the method: (§1)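 Quantification was by TMTpro 16plex LC-MS/MS with equalised channel sums, applied to the supernatant after 21,000xg for 90 min. Samples were crude K562 extract at 1 mg/mL protein in PBS pH 7.4 with 1 mM MgCl2, treated with 10 μM compound for 30 min, heated for 3 min across 48°C-58°C, pooled and brought to 0.5% NP-40 at 4°C. Values are log-two fold changes in thermal stability relative to solvent controls, from duplicates.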

[2] = compound: CS(=O)(=O)N1CCN(Cc2cc3nc(-c4cccc5[nH]ncc45)nc(N4CCOCC4)c3s2)CC1 [pictilisib]
Summary of the method: as §1

[3] = compound: C[C@@H](Oc1cc(-c2cnn(C3CCNCC3)c2)cnc1N)c1c(Cl)ccc(F)c1Cl [crizotinib]
Summary of the method: as §1

[4] = compound: C[C@H](C1=CC=C(C=C1)C(=O)NC2=C3C=CNC3=NC=C2)N
Summary of the method: as §1

[5] = compound: C[C@H](Nc1ncnc2nc[nH]c12)c1cc2cccc(Cl)c2c(=O)n1-c1ccccc1 [duvelisib]
Summary of the method: as §1

[6] = compound: Cc1cc(Nc2cc(CN3CCOCC3)c3nc(C)c(Cc4ccc(Cl)cc4F)n3n2)n[nH]1 [gandotinib]
Summary of the method: as §1

[7] = compound: Cc1cc(Nc2cc(N3CCN(C)CC3)nc(Sc3ccc(NC(=O)C4CC4)cc3)n2)n[nH]1 [tozasertib]
Summary of the method: as §1

[8] = compound: Cc1ccc(-n2nc(C(C)(C)C)cc2NC(=O)Nc2ccc(OCCN3CCOCC3)c3ccccc23)cc1 [doramapimod]
Summary of the method: as §1

[9] = compound: Cc1ccc(NC(=O)c2ccc(CN3CC[C@H](N(C)C)C3)c(C(F)(F)F)c2)cc1Nc1nccc(-c2cncnc2)n1 [bafetinib]
Summary of the method: as §1

[10] = compound: Cc1cccc(CC(=O)N2CCc3c2ccc(-c2cn(C)c4ncnc(N)c24)c3F)n1
Summary of the method: as §1

[11] = compound: Cc1cn(-c2cc(NC(=O)c3ccc(C)c(Nc4nccc(-c5cccnc5)n4)c3)cc(C(F)(F)F)c2)cn1 [nilotinib]
Summary of the method: as §1

[12] = compound: Cc1nc(Nc2n[nH]c3c2CN(C(=O)N[C@H](CN(C)C)c2ccccc2)C3(C)C)c2sccc2n1
Summary of the method: as §1

[13] = compound: Cc1nc(Nc2ncc(C(=O)Nc3c(C)cccc3Cl)s2)cc(N2CCN(CCO)CC2)n1 [dasatinib]
Summary of the method: as §1

[14] = compound: Cc1ncc(-c2ccnc(Nc3ccc(S(C)(=O)=O)cc3)n2)n1C(C)C
Summary of the method: as §1

[15] = compound: Cn1cc(-c2ccc3c(c2)CCN3C(=O)Cc2cccc(C(F)(F)F)c2)c2c(N)ncnc21
Summary of the method: as §1

[16] = compound: Cn1cc(CNCC2CCN(c3ncc(C(=O)NO)cn3)CC2)c2ccccc21 [quisinostat]
Summary of the method: as §1

[17] = compound: Cn1cncc1[C@@](N)(c1ccc(Cl)cc1)c1ccc2c(c1)c(-c1cccc(Cl)c1)cc(=O)n2C [tipifarnib]
Summary of the method: as §1

[18] = compound: NC(=O)Nc1cc(-c2cccc(F)c2)sc1C(=O)N[C@H]1CCCNC1
Summary of the method: as §1

[19] = compound: NC(=O)c1cnc(N[C@@H]2CCCC[C@@H]2N)nc1Nc1cccc(-n2nccn2)c1
Summary of the method: as §1

[20] = compound: NC1(c2ccc(-c3nc4ccn5c(=O)[nH]nc5c4cc3-c3ccccc3)cc2)CCC1
Summary of the method: as §1

Target | log2 fold change [1] | log2 fold change [2] | log2 fold change [3] | log2 fold change [4] | log2 fold change [5] | log2 fold change [6] | log2 fold change [7] | log2 fold change [8] | log2 fold change [9] | log2 fold change [10] | log2 fold change [11] | log2 fold change [12] | log2 fold change [13] | log2 fold change [14] | log2 fold change [15] | log2 fold change [16] | log2 fold change [17] | log2 fold change [18] | log2 fold change [19] | log2 fold change [20]
CCDC25 (UniProt Q86WR0) | inactive: -0.028 | inactive: -0.001 | inactive: -0.015 | active: 0.487 | inactive: 0.011 | inactive: -0.062 | inactive: -0.021 | inactive: 0.065 | inactive: 0.008 | inactive: -0.095 | inactive: 0.016 | inactive: -0.023 | inactive: -0.043 | inactive: -0.021 | inactive: -0.013 | inactive: -0.039 | inactive: 0.002 | inactive: 0 | inactive: 0.024 | inactive: -0.031
CARNMT1 (UniProt Q8N4J0) | inactive: 0.01 | inactive: -0.029 | inactive: -0.131 | active: -0.354 | inactive: 0.018 | inactive: 0.038 | inactive: -0.04 | inactive: 0.01 | inactive: -0.078 | inactive: 0.181 | inactive: 0.019 | inactive: -0.016 | inactive: 0.003 | inactive: -0.019 | inactive: 0.006 | inactive: -0.173 | inactive: 0.011 | inactive: 0.004 | inactive: 0.019 | inactive: -0.023
CCDC134 (UniProt Q9H6E4) | inactive: -0.024 | inactive: -0.02 | inactive: 0.094 | inactive: 0.023 | inactive: 0.015 | inactive: 0 | inactive: -0.004 | inactive: -0.038 | inactive: 0.04 | inactive: 0.003 | inactive: -0.02 | inactive: 0.002 | inactive: 0.02 | inactive: 0.041 | inactive: 0.015 | inactive: 0.146 | inactive: 0.007 | inactive: -0.007 | inactive: 0.008 | inactive: 0.008
CCT7 (UniProt Q99832) | inactive: 0.005 | inactive: 0.002 | inactive: 0.02 | inactive: 0.012 | inactive: 0.031 | inactive: -0.021 | inactive: 0.009 | inactive: 0.037 | inactive: 0.065 | inactive: -0.03 | inactive: -0.006 | inactive: 0.006 | inactive: 0.044 | inactive: 0.001 | inactive: -0.004 | inactive: 0.032 | inactive: 0.008 | inactive: -0.024 | inactive: 0.001 | inactive: -0.008
CCNA2 (UniProt P20248) | inactive: -0.004 | inactive: -0.029 | inactive: -0.035 | inactive: -0.092 | inactive: 0.019 | inactive: 0.091 | inactive: -0.073 | inactive: 0.059 | inactive: 0.027 | inactive: 0.049 | inactive: -0.014 | inactive: 0.064 | inactive: 0.04 | active: 0.234 | inactive: -0.051 | inactive: -0.086 | inactive: -0.015 | inactive: 0.005 | inactive: 0.063 | inactive: -0.021
CCT8 (UniProt P50990) | inactive: -0.036 | inactive: 0.014 | inactive: 0.018 | inactive: -0.008 | inactive: -0.003 | inactive: 0 | inactive: -0.006 | inactive: -0.011 | inactive: 0.006 | inactive: -0.006 | inactive: 0.002 | inactive: -0.013 | inactive: -0.002 | inactive: -0.001 | inactive: -0.016 | inactive: 0.013 | inactive: 0.015 | inactive: -0.015 | inactive: -0.008 | inactive: 0.005
CD2AP (UniProt Q9Y5K6) | inactive: 0.003 | inactive: 0.019 | inactive: 0.031 | inactive: -0.016 | inactive: 0.008 | inactive: 0.046 | inactive: -0.007 | inactive: -0.035 | inactive: -0.02 | inactive: -0.024 | inactive: -0.016 | inactive: 0.028 | inactive: 0.02 | inactive: -0.013 | inactive: -0.026 | inactive: 0.015 | inactive: -0.014 | inactive: -0.036 | inactive: -0.015 | inactive: -0.012
CCS (UniProt O14618) | inactive: -0.028 | inactive: 0.052 | inactive: 0.025 | inactive: -0.064 | inactive: -0.009 | inactive: 0.153 | inactive: 0.031 | inactive: -0.078 | inactive: -0.021 | inactive: 0.02 | inactive: -0.018 | inactive: 0.013 | inactive: 0 | inactive: -0.051 | inactive: 0.024 | inactive: -0.061 | inactive: -0.016 | inactive: -0.042 | inactive: 0.009 | inactive: 0.059
CBLL1 (UniProt Q75N03) | inactive: -0.027 |  | inactive: -0.04 | inactive: 0.038 | inactive: 0.042 | inactive: -0.082 | inactive: 0.05 | inactive: 0.036 |  | inactive: -0.004 | inactive: 0.045 | inactive: 0.002 | inactive: -0.043 | inactive: -0.039 | inactive: -0.019 | inactive: 0.039 | inactive: 0.05 | inactive: -0.045 | inactive: 0.066 | inactive: -0.031
CCT6B (UniProt Q92526) | inactive: -0.058 | inactive: -0.058 |  | inactive: -0.054 |  | inactive: -0.087 |  |  | inactive: 0.033 | inactive: -0.022 |  |  |  |  |  |  |  |  | inactive: -0.037 | 
CCNE1 (UniProt P24864) | inactive: -0.088 | inactive: -0.139 | inactive: 0 | inactive: 0.006 | inactive: -0.026 | inactive: -0.05 | inactive: -0.089 | inactive: -0.167 | inactive: 0.039 | inactive: 0.043 |  |  | inactive: 0.007 |  | inactive: -0.088 | inactive: -0.057 |  | inactive: 0.105 | inactive: -0.034 | 
CAV2 (UniProt P51636) | inactive: -0.089 |  | inactive: 0.04 | inactive: -0.05 | inactive: 0.05 | inactive: 0.084 |  | inactive: -0.063 |  | inactive: 0.248 |  |  | inactive: 0.03 |  | inactive: -0.221 | inactive: -0.038 |  | inactive: 0.114 | inactive: 0.173 | inactive: 0.273
CCT3 (UniProt E9PM09) | inactive: -0.04 | inactive: -0.157 |  |  | inactive: 0.016 |  | inactive: 0.375 |  | inactive: -0.23 |  | inactive: 0.08 | inactive: -0.129 | inactive: 0.01 | inactive: 0.238 | inactive: 0.318 |  | inactive: 0.037 |  | inactive: -0.061 | inactive: 0.277

Individual results from above:
In log2 fold change [8], CCNE1 (UniProt P24864) is entered as inactive: -0.167
In log2 fold change [10], CBLL1 (UniProt Q75N03) is entered as inactive: -0.004
